Measurements published in patent US9988428B2 (GRIFFON PHARMACEUTICALS INC., priority 2016, dated 2018).

experiment: general procedure: Fmoc solid-phase peptide synthesis; Benzhydrylamine (BHA) resin (Bachem AG), loading 0.75 mmol/g, with 6-aminohexanoic acid and Rink linker; HCTU or COMU, DIEA; settings: conjugation step, analytical HPLC

Substance | final HPLC purity
YaDAIFTAC(Peg-5K)YROVLAQLSAROALQDILS(Har)-NH2 | >95%
YaDAIFTASYROVLAQLSC(Peg-2K)ROALQDILSKN-NH2 | >95%
YaDAIFTASYROVLAQLSAROALC(Peg-2K)DILSKN-NH2 | >95%
YaDAIFTC(Peg-2K)SYROVLAQLSAROALQDILSKN-NH2 | >95%
YaDAIFTASYROVLAC(Peg-2K)LSAROALQDILSKN-NH2 | >95%
YaDAIFTASYROVLAQLSAROALQDC(Peg-2K)LSKN-NH2 | >95%
YaDAIFTAC(Peg-40K)YROVLAQLSAROALQDILS(Har)-NH2 | >95%
YaDAIFTAC(Peg-2K)YROVLAQLSAROALQDILS-(Har)-NH2 | >95%
YaDAIFTAC(Peg-2K)YROVLAQLSAROALQDILSRNC(Peg-2K)-NH2 | >95%
YaDAIFTAC(Peg-2K)YROVLAQLSAROALQDILC(Peg-2K)RN-NH2 | >95%
YaDAIFTASYROVLAQLSAROC(Peg-2K)LQDILSKN-NH2 | >95%
YaDAIFTASYROVLAQLSAROALQDILC(Peg-2K)KN-NH2 | >95%
YaDAIFTASYROVLC(Peg-2K)QLSAROALQDILSKN-NH2 | >95%
YaDAIFTAC(Peg-2K)YROVLAQLSAROC(Peg-2K)LQDILSRN-NH2 | >95%
YaDAIFTAC(Peg-2K)YROVLAQLSAROALQDILSKN-NH2 | >95%
YaDAIFTAC(Peg-2K)YROVLAQLSAROALC(Peg-2K)DILSRN-NH2 | >95%

The same purity stands for every peptide and may come from a single statement.
